Patent US20120189633A1 (KOLLTAN PHARMACEUTICALS, published 2012)
Results are given in words; binding and its absence hold for the method and conditions named. Some results given as binding are weak or reduced against the parent protein; the word gives no strength.

Sequences of proteins named here, by UniProt entry; tags and fusion partners are left off. Residues count along the entry.
UniProt P10721, residues 26-524: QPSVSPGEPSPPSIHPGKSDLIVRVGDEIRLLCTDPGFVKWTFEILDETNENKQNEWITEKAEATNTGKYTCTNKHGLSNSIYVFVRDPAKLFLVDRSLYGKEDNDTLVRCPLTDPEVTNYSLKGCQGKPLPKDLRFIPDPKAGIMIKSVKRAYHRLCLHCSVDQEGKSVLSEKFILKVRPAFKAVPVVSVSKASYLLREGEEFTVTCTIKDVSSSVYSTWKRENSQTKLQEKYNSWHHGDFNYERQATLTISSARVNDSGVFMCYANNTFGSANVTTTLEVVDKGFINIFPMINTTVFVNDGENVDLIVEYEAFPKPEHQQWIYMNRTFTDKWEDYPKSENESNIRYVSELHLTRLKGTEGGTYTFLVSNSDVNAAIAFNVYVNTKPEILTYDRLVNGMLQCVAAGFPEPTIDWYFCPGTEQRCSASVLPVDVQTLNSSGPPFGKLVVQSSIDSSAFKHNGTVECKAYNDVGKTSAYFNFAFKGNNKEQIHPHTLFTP

Columns and labels:
[1] = target: KIT antigen containing the entire extracellular domain (D1-D5), glycosylated (UniProt P10721); experiment: solid phase ELISA on coated glycosylated KIT ECD antigen [panel C]
[2] = target: KIT antigen containing the entire extracellular domain (D1-D5), glycosylated (UniProt P10721); experiment: solid phase ELISA, untreated (glycosylated) KIT ECD antigen
[3] = target: de-glycosylated KIT antigen containing the entire extracellular domain (PNGase F-treated) (UniProt P10721); experiment: solid phase ELISA, PNGase F-treated KIT ECD antigen
[4] = target: de-glycosylated KIT antigen containing the entire extracellular domain (PNGase F-treated) (UniProt P10721); experiment: solid phase ELISA on coated PNGase F-treated KIT ECD antigen [panel C]

Measured: binding

B1: antibody 37M (antibody, V domains shown)
VH: QVQLKQSGAELVRPGASVKLSCKASGYTFTDYYINWVKQRPGQGLEWIARIYPGSGNTYYNEKFKGKATLTAEKSSSTAYMQLSSLTSEDSAVYFCARGVYYFDYWGQGTTLTVSS
VL: DIVMTQSQKFMSTSVGDRVSVTCKASQNVRTNVAWYQQKPGQSPKALIYSASYRYSGVPDRFTGSGSGTDFTLTISNVQSEDLADYFCQQYNSYPRTFGGGTKLEIKR
binds: [1] | [2] | [3] | [4]
